These are yes or no findings as the source states them, for the method shown. In cells and extracts the contact can be indirect. These calls come from enrichment with a bait or labelling near it, and not all partners need be listed. For some assays here: Where a sequence is shown, tags or fusion partners need not be part of it.
Key:
mycBirA*–Rab11a = mycBirA*–Rab11a (UniProt P62491); assay: proximity labelling; BioID: A2780 cells stably expressing mycBirA*-Rab baits (mycBirA* alone as control), 1 uM biotin for 16 h; lysis in 0.4% SDS, 500 mM NaCl buffer; streptavidin microspheres; LC-MS/MS with label-free quantification, four replicates; high-confidence list by SAINTexpress (BFDR<=0.05), longlist by >2-fold enrichment; biotin-modified peptides also scored
mycBirA*–Rab25 = target: T1, mycBirA*–Rab25 (UniProt P57735); assay: as above
T1 sequence: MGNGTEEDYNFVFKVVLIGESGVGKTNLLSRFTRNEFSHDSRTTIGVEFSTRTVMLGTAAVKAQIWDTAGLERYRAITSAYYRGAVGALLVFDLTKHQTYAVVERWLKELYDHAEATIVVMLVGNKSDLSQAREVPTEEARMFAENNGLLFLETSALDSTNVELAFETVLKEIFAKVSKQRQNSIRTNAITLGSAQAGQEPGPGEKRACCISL

Chains of the proteins cited; added tags and fusions are not shown.
UniProt P62491: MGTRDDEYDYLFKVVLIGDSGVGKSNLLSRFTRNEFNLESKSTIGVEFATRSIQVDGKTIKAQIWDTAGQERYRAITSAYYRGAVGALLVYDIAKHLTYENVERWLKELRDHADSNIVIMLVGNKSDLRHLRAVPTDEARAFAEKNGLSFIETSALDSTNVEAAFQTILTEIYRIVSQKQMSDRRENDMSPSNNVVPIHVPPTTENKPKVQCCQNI

| Binder | binding (mycBirA*–Rab11a) | binding (mycBirA*–Rab25) |
| --- | --- | --- |
| KIAA1468 (protein, UniProt Q9P260 1-1216) MAAMAPGGSGSGGGVNPFLSDSDEDDDEVAATEERRAVLRLGAGSGLDPGSAGSLSPQDPVALGSSARPGLPGEASAAAVALGGTGETPARLSIDAIAAQLLRDQYLLTALELHTELLESGRELPRLRDYFSNPGNFERQSGTPPGMGAPGVPGAAGVGGAGGREPSTASGGGQLNRAGSISTLDSLDFARYSDDGNRETDEKVAVLEFELRKAKETIQALRANLTKAAEHEVPLQERKNYKSSPEIQEPIKPLEKRALNFLVNEFLLKNNYKLTSITFSDENDDQDFELWDDVGLNIPKPPDLLQLYRDFGNHQVTGKDLVDVASGVEEDELEALTPIISNLPPTLETPQPAENSMLVQKLEDKISLLNSEKWSLMEQIRRLKSEMDFLKNEHFAIPAVCDSVQPPLDQLPHKDSEDSGQHPDVNSSDKGKNTDIHLSISDEADSTIPKENSPNSFPRREREGMPPSSLSSKKTVHFDKPNRKLSPAFHQALLSFCRMSADSRLGYEVSRIADSEKSVMLMLGRCLPHIVPNVLLAKREELIPLILCTACLHPEPKERDQLLHILFNLIKRPDDEQRQMILTGCVAFARHVGPTRVEAELLPQCWEQINHKYPERRLLVAESCGALAPYLPKEIRSSLVLSMLQQMLMEDKADLVREAVIKSLGIIMGYIDDPDKYHQGFELLLSALGDPSERVVSATHQVFLPAYAAWTTELGNLQSHLILTLLNKIEKLLREGEHGLDEHKLHMYLSALQSLIPSLFALVLQNAPFSSKAKLHGEVPQIEVTRFPRPMSPLQDVSTIIGSREQLAVLLQLYDYQLEQEGTTGWESLLWVVNQLLPQLIEIVGKINVTSTACVHEFSRFFWRLCRTFGKIFTNTKVKPQFQEILRLSEENIDSSAGNGVLTKATVPIYATGVLTCYIQEEDRKLLVGFLEDVMTLLSLSHAPLDSLKASFVELGANPAYHELLLTVLWYGVVHTSALVRCTAARMFELTLRGMSEALVDKRVAPALVTLSSDPEFSVRIATIPAFGTIMETVIQRELLERVKMQLASFLEDPQYQDQHSLHTEIIKTFGRVGPNAEPRFRDEFVIPHLHKLALVNNLQIVDSKRLDIATHLFEAYSALSCCFISEDLMVNHFLPGLRCLRTDMEHLSPEHEVILSSMIKECEQKVENKTVQEPQGSMSIAASLVSEDTKTKFLNKMGQLTTSGAMLANVFQRKK | binds | binds |
| OSBPL9 (protein, UniProt Q96SU4 1-736) MASIMEGPLSKWTNVMKGWQYRWFVLDYNAGLLSYYTSKDKMMRGSRRGCVRLRGAVIGIDDEDDSTFTITVDQKTFHFQARDADEREKWIHALEETILRHTLQLQGLDSGFVPSVQDFDKKLTEADAYLQILIEQLKLFDDKLQNCKEDEQRKKIETLKETTNSMVESIKHCIVLLQIAKDQSNAEKHADGMISTINPVDAIYQPSPLEPVISTMPSQTVLPPEPVQLCKSEQRPSSLPVGPVLATLGHHQTPTPNSTGSGHSPPSSSLTSPSHVNLSPNTVPEFSYSSSEDEFYDADEFHQSGSSPKRLIDSSGSASVLTHSSSGNSLKRPDTTESLNSSLSNGTSDADLFDSHDDRDDDAEAGSVEEHKSVIMHLLSQVRLGMDLTKVVLPTFILERRSLLEMYADFFAHPDLFVSISDQKDPKDRMVQVVKWYLSAFHAGRKGSVAKKPYNPILGEIFQCHWTLPNDTEENTELVSEGPVPWVSKNSVTFVAEQVSHHPPISAFYAECFNKKIQFNAHIWTKSKFLGMSIGVHNIGQGCVSCLDYDEHYILTFPNGYGRSILTVPWVELGGECNINCSKTGYSANIIFHTKPFYGGKKHRITAEIFSPNDKKSFCSIEGEWNGVMYAKYATGENTVFVDTKKLPIIKKKVRKLEDQNEYESRSLWKDVTFNLKIRDIDAATEAKHRLEERQRAEARERKEKEIQWETRLFHEDGECWVYDEPLLKRLGAAKH | binds | binds |
| OSBPL11 (protein, UniProt Q9BXB4 1-747) MQGGEPVSTMKVSESEGKLEGQATAVTPNKNSSCGGGISSSSSSRGGSAKGWQYSDHMENVYGYLMKYTNLVTGWQYRFFVLNNEAGLLEYFVNEQSRNQKPRGTLQLAGAVISPSDEDSHTFTVNAASGEQYKLRATDAKERQHWVSRLQICTQHHTEAIGKNNPPLKSRSFSLASSSNSPISQRRPSQNAISFFNVGHSKLQSLSKRTNLPPDHLVEVREMMSHAEGQQRDLIRRIECLPTSGHLSSLDQDLLMLKATSMATMNCLNDCFHILQLQHASHQKGSLPSGTTIEWLEPKISLSNHYKNGADQPFATDQSKPVAVPEEQPVAESGLLAREPEEINADDEIEDTCDHKEDDLGAVEEQRSVILHLLSQLKLGMDLTRVVLPTFILEKRSLLEMYADFMSHPDLFIAITNGATAEDRMIRFVEYYLTSFHEGRKGAIAKKPYNPIIGETFHCSWKMPKSEVASSVFSSSSTQGVTNHAPLSGESLTQVGSDCYTVRFVAEQVSHHPPVSGFYAECTERKMCVNAHVWTKSKFLGMSIGVTMVGEGILSLLEHGEEYTFSLPCAYARSILTVPWVELGGKVSVNCAKTGYSASITFHTKPFYGGKLHRVTAEVKHNITNTVVCRVQGEWNSVLEFTYSNGETKYVDLTKLAVTKKRVRPLEKQDPFESRRLWKNVTDSLRESEIDKATEHKHTLEERQRTEERHRTETGTPWKTKYFIKEGDGWVYHKPLWKIIPTTQPAE | binds | binds |
| Rab11-family-interacting protein (FIP) 1 (protein, UniProt Q6WKZ4 1-1283) MSLMVSAGRGLGAVWSPTHVQVTVLQARGLRAKGPGGTSDAYAVIQVGKEKYATSVSERSLGAPVWREEATFELPSLLSSGPAAAATLQLTVLHRALLGLDKFLGRAEVDLRDLHRDQGRRKTQWYKLKSKPGKKDKERGEIEVDIQFMRNNMTASMFDLSMKDKSRNPFGKLKDKIKGKNKDSGSDTASAIIPSTTPSVDSDDESVVKDKKKKSKIKTLLSKSNLQKTPLSQSMSVLPTSKPEKVLLRPGDFQSQWDEDDNEDESSSASDVMSHKRTASTDLKQLNQVNFTLPKKEGLSFLGGLRSKNDVLSRSNVCINGNHVYLEQPEAKGEIKDSSPSSSPSPKGFRKKHLFSSTENLAAGSWKEPAEGGGLSSDRQLSESSTKDSLKSMTLPSYRPAPLVSGDLRENMAPANSEATKEAKESKKPESRRSSLLSLMTGKKDVAKGSEGENPLTVPGREKEGMLMGVKPGEDASGPAEDLVRRSEKDTAAVVSRQGSSLNLFEDVQITEPEAEPESKSEPRPPISSPRAPQTRAVKPRLEVSPEAQPTARLPSPTDSPSSLPPLPSSSGQASVPSELGHGADTQSSESPSVFSSLSSPIAAPISTSTPIESWPLVDRGQAKSEGPPLLPKAELQTESLTPVPNSGSSALGSLFKQPSFPANKGTEDSLMGRTRETGTEKNTSSLELEESLPEQPETGRQEEELPRFPCKKQDYSPSSGEAQEVPFALSLSSDGAVSPVGELAAGGDRDLESQAGSLVESKARDAAEEVAPPLPMGASVPSIDSMMRKLEEMGLNLRKDQKKTKKRVSFSEQLFTEEAVAGAALLVEGHSSCPQELNPAWSVAGNASDGEPPESPHAEDSERESVTTPGPATCGAPASPADHLLLPSQEESFSEVPMSEASSAKDTPLFRMEGEDALVTQYQSKASDHEGLLSDPLSDLQLVSDFKSPIMADLNLSLPSIPEVASDDERIDQVEDDGDQVEDDGETAKSSTLDIGALSLGLVVPCPERGKGPSGEADRLVLGEGLCDFRLQAPQASVTAPSEQTTEFGIHKPHLGKSSSLDKQLPGPSGGEEEKPMGNGSPSPPPGTSLDNPVPSPSPSEIFPVTHSFPSSAHSDTHHTSTAESQKKATAEGSAGRVENFGKRKPLLQAWVSPSETHPVSAQPGAGTGSAKHRLHPVKPMNAMATKVANCSLGTATIISENLNNEVMMKKYSPSDPAFAYAQLTHDELIQLVLKQKETISKKEFQVRELEDYIDNLLVRVMEETPNILRIPTQVGKKAGKM | binds | binds |
